Results on eight molecules are retold here after patent publication US7579324B2, “Conjugates of biologically active compounds, methods for their preparation and use, formulation and pharmaceutical applications thereof” (c-a-i-r biosciences GmbH, priority 2002, dated 2009).

One series relates to white blood cells. As to the kind of experiment: Immune cell selective uptake (immune selectivity ratio) in blood cell preparations. Format: cell-based, mammalian. Particulars: fluorescent image of polymorphonuclear cells (FIG. 3). The method, then: Freshly drawn heparinised blood or buffy coat preparations are used for the determination of immune cell partition ratios. Buffy coat preparations are preferred. These may be obtained from donor blood by simple centrifugation of whole blood (4795 g for 10 minutes). Following centrifugation, plasma is collected from the surface, after which immune cells are expressed from the donor bags along with the erythrocytes lying immediately below the leukocyte layer. This ensures high yields and a sufficient population of erythrocytes for partition. 5 ml of the resulting cell suspension are dispensed into T25 culture flasks. Substrates are added to a final concentration between 1 and 10 μM and the suspensions incubated at 37° C., in a 5% CO2 atmosphere. For analysis of uptake kinetics, samples are withdrawn at 0, 2, 5, 10, 30, 60, 90, 180, or 240 min after substrate addition. For screening purposes, samples are taken at 0 and 120 minutes. […]
Uptake of fluorescent compounds is monitored using fluorescence microscopy. Excitation and emission wavelengths depend of the fluorescence label in use. […]
Cell lysates are analysed using a HP 1100 HPLC System (Agilent Technologies, Waldbronn, Germany) with a Kromasil 3.5μ C18, 50×2.0 mm column and guard cartridge system (both, Phenomenex, Aschaffenburg, Germany) run at 30° C. […]
Masses are monitored according to the known or expected M/Z ratios. […]
In the case of `CC[C@H]1OC(=O)[C@H](C)[C@@H](OC2C[C@@](C)(OC)[C@@H](O)[C@H](C)O2)[C@H](C)[C@@H](OC2O[C@H](C)C[C@H](N(C)C)[C@H]2O)[C@](C)(O)C[C@@H](C)/C(=N/OCc2cc(=O)oc3cc(OC)c(OC)cc23)[C@H](C)[C@@H](O)[C@]1(C)O` (some centres unmarked) [Compound 3], the intracellular distribution entry is reported as “even distribution with some concentration near the nucleus”.

For a further series, the system named is lymphocytes. The series can be described thus: Proliferation assay (lymphocytes, BrdU ELISA). The settings on record: ratio of IC50 at 2 h to IC50 at 72 h; lower = better uptake and release. Type of series: cell-based, mammalian. In general terms: Uptake of a labelled nucleoside into DNA is a usual measure of proliferation.
`CC[C@H]1OC(=O)[C@H](C)[C@@H](O)[C@H](C)[C@@H](O[C@@H]2O[C@H](C)C[C@@H](N(C)CCOC(=O)CC/C(C)=C/Cc3c(O)c4c(c(C)c3OC)COC4=O)[C@@H]2N(C)C)[C@](C)(O)C[C@@H](C)CN(C)[C@H](C)[C@@H](O)[C@]1(C)O` [Compound 74]: the “Ratio (2 h:72 h)” value is on record as 1.45. In the case of `COc1c(C)c2c(c(O)c1C/C=C(\C)CCC(=O)OCCN1CCOCC1)C(=O)OC2` [Mycophenolate mofetil, reference compound], the “Ratio (2 h:72 h)” value is on record as 4.5. The same measure, in the same setting: as for `COc1c(C)c2c(c(O)c1C/C=C(\C)CCC(=O)O)C(=O)OC2` [Mycophenolic acid], the figure is 4.63; as for `COc1c(C)c2c(c(O)c1C/C=C(\C)CCC(=O)OC(COCCCCOCC(CN1CCOCC1)OC(=O)CC/C(C)=C/Cc1c(O)c3c(c(C)c1OC)COC3=O)CN1CCOCC1)C(=O)OC2` (centres unmarked) [Compound 81], 1.6. Consider `CCOC(=O)CC/C(C)=C/Cc1c(OC)c(C)c2c(c1OC(=O)CCC(=O)O[C@@H]1C(N(C)C)C[C@@H](C)O[C@H]1O[C@@H]1[C@@H](C)[C@H](O[C@H]3C[C@@](C)(OC)[C@@H](O)[C@H](C)O3)[C@@H](C)C(=O)O[C@H](CC)[C@@](C)(O)[C@H](O)[C@@H](C)N(C)C[C@H](C)C[C@@]1(C)O)C(=O)OC2` (some centres unmarked) [Compound 69], for which the “Ratio (2 h:72 h)” value came out at 1.9. Turning to `CC[C@H]1OC(=O)[C@H](C)C(=O)[C@H](C)[C@@H](O[C@@H]2O[C@H](C)C[C@H](N(C)C)[C@H]2OC(=O)CC/C(C)=C/Cc2c(O)c3c(c(C)c2OC)COC3=O)[C@](C)(O)C[C@@H](C)CN(C)[C@H](C)[C@@H](O)[C@]1(C)O` [Compound 79], the “Ratio (2 h:72 h)” value was 2.63. Consider `CC[C@H]1OC(=O)[C@H](C)[C@@H](O[C@H]2C[C@@](C)(OC)[C@@H](O)[C@H](C)O2)[C@H](C)[C@@H](O[C@@H]2O[C@H](C)C[C@@H](OC(=O)CC/C(C)=C/Cc3c(O)c4c(c(C)c3OC)COC4=O)[C@@H]2N2CCOCC2)[C@](C)(O)C[C@@H](C)CN(C)[C@H](C)[C@@H](O)[C@]1(C)O` [Compound 80], for which the “Ratio (2 h:72 h)” value is given as 3.53.
